From patent US20120263651

By UniProt entry, the sequences of proteins in these tests, tags left out. Residues count along the entry.
UniProt Q04206, 1-313: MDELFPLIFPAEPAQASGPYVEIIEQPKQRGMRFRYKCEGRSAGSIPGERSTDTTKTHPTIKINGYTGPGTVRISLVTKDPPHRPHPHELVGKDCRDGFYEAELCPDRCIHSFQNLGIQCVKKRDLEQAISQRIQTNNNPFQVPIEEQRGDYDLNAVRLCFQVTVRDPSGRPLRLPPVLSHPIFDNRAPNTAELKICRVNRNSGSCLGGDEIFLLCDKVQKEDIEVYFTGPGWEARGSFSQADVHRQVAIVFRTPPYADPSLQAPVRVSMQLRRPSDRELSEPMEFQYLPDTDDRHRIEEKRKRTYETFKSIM
UniProt Q04206, whole entry: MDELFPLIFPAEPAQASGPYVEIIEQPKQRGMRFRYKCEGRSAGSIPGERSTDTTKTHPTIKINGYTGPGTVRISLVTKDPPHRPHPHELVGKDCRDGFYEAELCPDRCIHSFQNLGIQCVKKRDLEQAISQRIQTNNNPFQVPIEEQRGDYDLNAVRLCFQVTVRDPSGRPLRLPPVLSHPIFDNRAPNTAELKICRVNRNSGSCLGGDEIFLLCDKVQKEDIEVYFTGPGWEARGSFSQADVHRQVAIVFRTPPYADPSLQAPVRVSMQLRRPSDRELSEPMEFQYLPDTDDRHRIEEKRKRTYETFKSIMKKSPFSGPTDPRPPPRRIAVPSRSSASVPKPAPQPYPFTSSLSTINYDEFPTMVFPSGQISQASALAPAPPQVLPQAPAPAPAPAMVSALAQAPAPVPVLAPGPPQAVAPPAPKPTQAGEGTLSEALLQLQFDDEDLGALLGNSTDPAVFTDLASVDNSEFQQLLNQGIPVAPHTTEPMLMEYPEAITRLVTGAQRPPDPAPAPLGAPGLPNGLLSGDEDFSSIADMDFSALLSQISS

How the values were obtained:
[1] = target: GST-RelA(1-313) (NF-kB p65, DNA binding and IkBa interactive domain) (UniProt Q04206); assay: competition with a labelled probe; settings: 100-fold excess unlabeled KB55 duplex; purified recombinant protein; protein details: GST
[2] = target: endogenous NF-kB/RelA in TNF-stimulated A549 extracts (Homo sapiens) (UniProt Q04206); assay: pull-down; settings: protein in an extract, single-stranded DNA
[3] = target: endogenous NF-kB/RelA in TNF-stimulated A549 extracts (Homo sapiens) (UniProt Q04206); assay: EMSA; settings: TNF-stimulated A549 nuclear extract; TNF-induced complexes competed by 100-fold WT but not mutant dsNF-kB; also competes dsNF-kB binding (FIG. 2A); protein in an extract; single-stranded DNA

For “ATACGGGAATTCCCG (double strand) [KB55 self-annealed duplex]”, the binding signal (% P028F4 binding remaining) [1] was 8.

“GGGTAACCTTGAGTCACGAATTCAAACCTCTTCACTCCCCTCACTACTGCTTATAAAGGTACCCAACTTACAGCTTCTGG [P028A1, biotinylated]”: binds more weakly ([2]; no capture from CE, some capture from TNF-stimulated NE, label: biotin, variant of P028A1 nonspecific control).

“GGGTAACCTTGAGTCACGAATTCAAGCGGGACAGGAGAAACACGGCATGTCAGCGAAGGTACCCAACTTACAGCTTCTGG [P028F4, 5'-biotinylated]”: binds ([2]; captures RelA from TNF-stimulated CE and NE, 20 nM aptamer, 4 C, label: 5'-biotin, variant of P028F4).

“GGGTAACCTTGAGTCACGAATTCAAGCGGGACAGGAGAAACACGGCATGTCAGCGAAGGTACCCAACTTACAGCTTCTGG [P028F4]”: binds [3].

Construct, isoform or probe ends are uncertain for at least one entry. For some of these results: Results from cells or extracts need not show a direct contact. For some of these results: The comparison behind a weaker result is the experiment's own reference, which may not be listed here.
